{
  "sequences": {"note": "Amino acid sequences for entries named in this document (tags omitted). Residues count along the entry.", "UniProt P59901, residues 24-499": "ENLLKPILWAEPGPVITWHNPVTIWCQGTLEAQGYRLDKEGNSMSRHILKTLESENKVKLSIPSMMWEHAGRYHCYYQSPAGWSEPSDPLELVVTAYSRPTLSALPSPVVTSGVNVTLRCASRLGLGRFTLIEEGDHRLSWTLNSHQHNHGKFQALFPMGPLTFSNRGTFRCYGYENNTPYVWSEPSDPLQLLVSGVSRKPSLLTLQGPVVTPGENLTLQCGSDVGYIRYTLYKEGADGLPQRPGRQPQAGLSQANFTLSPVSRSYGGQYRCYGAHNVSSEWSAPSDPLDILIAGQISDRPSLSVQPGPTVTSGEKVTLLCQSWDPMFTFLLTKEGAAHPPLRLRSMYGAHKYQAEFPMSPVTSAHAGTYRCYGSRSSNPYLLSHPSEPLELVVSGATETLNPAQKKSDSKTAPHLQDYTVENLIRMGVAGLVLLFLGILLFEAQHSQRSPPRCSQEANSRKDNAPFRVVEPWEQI", "UniProt Q10589, residues 49-161": "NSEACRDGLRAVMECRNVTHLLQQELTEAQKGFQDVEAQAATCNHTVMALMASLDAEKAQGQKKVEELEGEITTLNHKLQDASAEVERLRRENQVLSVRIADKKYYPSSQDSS"},
  "source": "paper PMC4501562",
  "about": "“Vpu Exploits the Cross-Talk between BST2 and the ILT7 Receptor to Suppress Anti-HIV-1 Responses by Plasmacytoid Dendritic Cells” (PLoS Pathogens, 2015)",
  "key": {"[1]": {"biological_target": "ILT7 on the ILT7+ NFAT-GFP reporter mouse cell line (CT550) (human) (UniProt P59901)", "assay": "proximity ligation; ILT7+ or ILT7- NFAT-GFP reporter cells incubated with BST2-Fc-containing supernatant (approximately 300 ug/ml), cross-linked with DTSSP, fixed; Duolink PLA with mouse anti-ILT7 mAb and rabbit polyclonal anti-BST2"}, "[2]": {"biological_target": "full length ILT7 expressed on HEK293T cells (human) (UniProt P59901)", "assay": "flow cytometry on cells; control or ILT7-transfected HEK293T cells incubated with BST2-Fc-containing supernatant (approximately 300 ug/ml) 30 min at 4 C, then cross-linked with DTSSP 30 min at room temperature; surface BST2-Fc stained with rabbit anti-BST2 serum and anti-human IgG"}},
  "note": "These are yes or no findings as the source states them, for the method shown. For some assays here: Binding seen in cells or lysates may run through a third protein. Some results given as binding are weak or reduced against the parent protein; the word gives no strength.",
  "data": [
    {"substance": "Fc-tagged ectodomain of BST2 (from UniProt Q10589 49-161) (Fc fusion)", "values": [
      {"measurement": "binding", "setting": "[1]", "value": "binds"},
      {"measurement": "binding", "setting": "[2]", "value": "binds"}
    ]}
  ]
}
